Results: PMC5865211, “The orphan GPR50 receptor promotes constitutive TGFβ receptor signaling and protects against cancer development” (Nature Communications, 2018)

Sequences of proteins named here, by UniProt entry; tags and fusion partners are left off. A change or cut given only in a name is not applied to a line headed by its entry. A line that says so, or that is headed by a name, gives the form on record, which may keep a tag or linker.
GPR50Δ4-TAP (Q13585, form named): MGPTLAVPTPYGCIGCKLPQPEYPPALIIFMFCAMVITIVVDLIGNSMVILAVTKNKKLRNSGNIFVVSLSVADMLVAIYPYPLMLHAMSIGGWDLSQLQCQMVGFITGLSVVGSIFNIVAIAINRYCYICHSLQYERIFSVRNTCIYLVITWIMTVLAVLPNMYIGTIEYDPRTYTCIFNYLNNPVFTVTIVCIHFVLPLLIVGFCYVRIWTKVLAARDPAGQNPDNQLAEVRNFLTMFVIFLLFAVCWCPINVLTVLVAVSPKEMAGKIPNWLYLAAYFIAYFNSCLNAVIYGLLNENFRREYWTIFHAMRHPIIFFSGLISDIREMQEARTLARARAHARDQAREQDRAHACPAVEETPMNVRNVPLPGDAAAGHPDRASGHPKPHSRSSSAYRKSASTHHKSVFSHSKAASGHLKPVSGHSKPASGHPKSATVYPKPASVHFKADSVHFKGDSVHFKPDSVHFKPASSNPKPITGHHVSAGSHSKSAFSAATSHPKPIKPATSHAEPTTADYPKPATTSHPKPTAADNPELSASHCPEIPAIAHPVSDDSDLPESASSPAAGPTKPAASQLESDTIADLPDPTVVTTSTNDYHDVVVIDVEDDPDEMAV

Target: GPR50Δ4-TAP (human) (UniProt Q13585)
Test: affinity purification with mass spectrometry; tandem affinity purification of GPR50Δ4-TAP from stably expressing HEK293T cells, naive HEK293T as control; on-bead trypsin digestion on calmodulin beads, nLC MS/MS

- binding: binds
B1: type I TGFβ receptor (TβRI), endogenous human (receptor, UniProt P36897 34-503)
chain: LQCFCHLCTKDNFTCVTDGLCFVSVTETTDKVIHNSMCIAEIDLIPRDRPFVCAPSSKTGSVTTTYCCNQDHCNKIELPTTVKSSPGLGPVELAAVIAGPVCFVCISLMLMVYICHNRTVIHHRVPNEEDPSLDRPFISEGTTLKDLIYDMTTSGSGSGLPLLVQRTIARTIVLQESIGKGRFGEVWRGKWRGEEVAVKIFSSREERSWFREAEIYQTVMLRHENILGFIAADNKDNGTWTQLWLVSDYHEHGSLFDYLNRYTVTVEGMIKLALSTASGLAHLHMEIVGTQGKPAIAHRDLKSKNILVKKNGTCCIADLGLAVRHDSATDTIDIAPNHRVGTKRYMAPEVLDDSINMKHFESFKRADIYAMGLVFWEIARRCSIGGIHEDYQLPYYDLVPSDPSVEEMRKVVCEQKLRPNIPNRWQSCEALRVMAKIMRECWYANGAARLTALRIKKTLSQLSQQEGIKM

No constants are given. Whether binding was seen depends on the method and setting. In cells and extracts the contact can be indirect. A yes stands for co-enrichment or nearness to the bait. Other partners may have been found.
